In PMC10715029, “Interaction and assembly of the DNA replication core proteins of Kaposi’s sarcoma-associated herpesvirus” (Microbiology Spectrum, 2023):
No constants are given. Whether binding was seen depends on the method and setting. For some of these results: Binding seen in cells or lysates may run through a third protein. Some results given as binding are weak or reduced against the parent protein; the word gives no strength. For some of these results: Sequences can lack the tags named with a protein.

Tests used:
[1] = target: T1, GFP-ORF40/41 (Kaposi's sarcoma-associated herpesvirus (KSHV, human herpesvirus 8)) (UniProt Q2HR92); test: co-IP; 293T cells cotransfected with a GFP fusion and FLAG-tagged proteins for 24 h; lysis in 50 mM Tris-HCl pH 7.6, 150 mM NaCl, 1 mM EDTA, 1% Triton X-100, 1 mM PMSF; precipitation with GFP-Trap MA beads; blots with anti-GFP and anti-FLAG
T1 sequence: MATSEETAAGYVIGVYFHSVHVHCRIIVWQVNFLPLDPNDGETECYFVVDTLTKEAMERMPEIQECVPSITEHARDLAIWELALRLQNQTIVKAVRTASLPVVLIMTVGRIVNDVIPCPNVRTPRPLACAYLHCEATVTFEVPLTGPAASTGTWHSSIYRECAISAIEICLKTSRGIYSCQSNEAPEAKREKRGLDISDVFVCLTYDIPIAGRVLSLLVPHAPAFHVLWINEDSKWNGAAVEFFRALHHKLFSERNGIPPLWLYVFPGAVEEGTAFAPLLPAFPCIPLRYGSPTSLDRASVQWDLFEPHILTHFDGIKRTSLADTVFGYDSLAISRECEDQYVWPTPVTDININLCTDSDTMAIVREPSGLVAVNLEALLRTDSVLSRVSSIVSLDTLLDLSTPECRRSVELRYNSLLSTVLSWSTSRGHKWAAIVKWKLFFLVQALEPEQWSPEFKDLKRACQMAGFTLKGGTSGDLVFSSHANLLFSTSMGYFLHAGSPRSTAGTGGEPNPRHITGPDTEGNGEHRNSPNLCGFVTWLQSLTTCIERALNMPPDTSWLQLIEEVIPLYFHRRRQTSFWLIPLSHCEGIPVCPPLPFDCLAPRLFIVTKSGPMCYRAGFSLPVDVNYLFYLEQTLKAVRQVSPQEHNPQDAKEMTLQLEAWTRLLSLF

[2] = target: T2, GFP-ORF9 (Kaposi's sarcoma-associated herpesvirus (KSHV, human herpesvirus 8)) (UniProt Q2HRD0); test: as above
T2 sequence: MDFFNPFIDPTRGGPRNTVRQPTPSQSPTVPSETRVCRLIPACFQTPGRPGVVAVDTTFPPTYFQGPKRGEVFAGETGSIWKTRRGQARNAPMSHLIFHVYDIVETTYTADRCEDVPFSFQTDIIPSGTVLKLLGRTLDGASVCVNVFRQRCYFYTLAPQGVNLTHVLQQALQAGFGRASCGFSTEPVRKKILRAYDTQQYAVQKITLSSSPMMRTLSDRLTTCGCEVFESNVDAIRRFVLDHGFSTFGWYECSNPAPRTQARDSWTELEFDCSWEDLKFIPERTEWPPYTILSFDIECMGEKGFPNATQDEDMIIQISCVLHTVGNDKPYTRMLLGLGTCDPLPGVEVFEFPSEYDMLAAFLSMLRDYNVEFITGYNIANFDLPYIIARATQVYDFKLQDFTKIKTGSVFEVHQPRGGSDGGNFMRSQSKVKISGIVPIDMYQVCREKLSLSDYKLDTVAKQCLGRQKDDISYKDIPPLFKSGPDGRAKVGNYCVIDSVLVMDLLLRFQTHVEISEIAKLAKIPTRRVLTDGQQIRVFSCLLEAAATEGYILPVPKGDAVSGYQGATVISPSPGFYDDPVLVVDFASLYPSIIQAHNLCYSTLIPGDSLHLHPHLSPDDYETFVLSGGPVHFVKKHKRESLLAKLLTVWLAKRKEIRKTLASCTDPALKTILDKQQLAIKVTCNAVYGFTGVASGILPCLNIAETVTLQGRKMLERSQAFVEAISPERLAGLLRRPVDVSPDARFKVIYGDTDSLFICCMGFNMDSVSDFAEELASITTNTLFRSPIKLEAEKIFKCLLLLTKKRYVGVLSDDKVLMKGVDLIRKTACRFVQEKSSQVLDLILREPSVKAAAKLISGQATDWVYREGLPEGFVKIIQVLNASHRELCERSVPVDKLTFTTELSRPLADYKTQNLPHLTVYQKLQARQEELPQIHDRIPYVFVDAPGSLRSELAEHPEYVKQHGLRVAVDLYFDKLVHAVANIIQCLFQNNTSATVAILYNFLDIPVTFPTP

[3] = target: T3, GAL4-ORF6 (Kaposi's sarcoma-associated herpesvirus (KSHV, human herpesvirus 8)) (UniProt Q2HRD3); test: two-hybrid; mammalian two-hybrid (GAL4/VP16) in 293T cells, pGal4(5×)-Luc reporter, only the GAL4 and the VP16 fusion coexpressed, luciferase at 24 h, fold activation over empty vector; radicicol (0.25-1 µM) inhibited the activation by GAL4-ORF59 and VP16-ORF9 dose-dependently
T3 sequence: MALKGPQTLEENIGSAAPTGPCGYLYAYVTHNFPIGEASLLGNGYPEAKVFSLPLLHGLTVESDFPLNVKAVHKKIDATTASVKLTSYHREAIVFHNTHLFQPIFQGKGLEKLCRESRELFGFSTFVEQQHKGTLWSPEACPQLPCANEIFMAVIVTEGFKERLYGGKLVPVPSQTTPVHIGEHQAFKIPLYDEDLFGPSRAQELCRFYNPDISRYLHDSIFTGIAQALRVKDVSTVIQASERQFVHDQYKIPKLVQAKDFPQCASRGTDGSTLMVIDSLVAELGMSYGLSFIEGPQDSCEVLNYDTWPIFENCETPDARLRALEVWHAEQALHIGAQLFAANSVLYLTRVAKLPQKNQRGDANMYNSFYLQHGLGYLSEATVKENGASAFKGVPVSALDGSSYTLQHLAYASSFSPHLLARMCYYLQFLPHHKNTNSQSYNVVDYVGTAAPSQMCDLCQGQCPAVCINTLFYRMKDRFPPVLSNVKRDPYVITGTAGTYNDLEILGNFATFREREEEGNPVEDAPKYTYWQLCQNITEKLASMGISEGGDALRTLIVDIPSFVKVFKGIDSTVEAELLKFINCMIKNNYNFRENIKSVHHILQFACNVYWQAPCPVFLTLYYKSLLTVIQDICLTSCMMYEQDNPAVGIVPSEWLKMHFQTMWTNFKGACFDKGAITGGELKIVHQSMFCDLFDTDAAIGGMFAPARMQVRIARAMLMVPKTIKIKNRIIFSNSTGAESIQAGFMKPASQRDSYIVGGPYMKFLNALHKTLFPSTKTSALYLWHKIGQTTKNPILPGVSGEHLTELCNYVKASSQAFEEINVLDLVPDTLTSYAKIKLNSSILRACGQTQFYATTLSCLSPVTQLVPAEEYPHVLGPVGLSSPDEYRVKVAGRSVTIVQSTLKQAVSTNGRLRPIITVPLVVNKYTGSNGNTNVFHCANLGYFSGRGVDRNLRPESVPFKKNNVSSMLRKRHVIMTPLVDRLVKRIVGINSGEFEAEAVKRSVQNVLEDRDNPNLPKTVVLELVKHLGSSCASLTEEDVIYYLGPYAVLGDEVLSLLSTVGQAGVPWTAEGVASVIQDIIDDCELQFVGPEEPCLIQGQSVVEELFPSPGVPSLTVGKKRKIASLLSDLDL

B1: F-ORF9 (protein, UniProt Q2HRD0 1-1012)
chain: T2 sequence
binding [1]: binds

B2: VP16-ORF44 (natural protein)
chain: MDSSEGCTDMDEPSPGFILNMTSDAKVRSVVEQIDRLSNITTSPPEMGWYDLEFDPLEDEGPFLPFSAYVITGTAGAGKSTSVSALHQNLNCLITGATVVAAQNLSRALKSYCPTIYHAFGFKSRHINICQRKVPKVTQSSIEQLQRYELARYWPTVTDIIREFMRKKQKGQYSSLSQSAFRLLCRMGGANLWTSNIIVIDEAGTLSSHILTAVVFFYWFYNSWLDTPLYRNGAVPCIVCVGSPTQTDAFQSVFNHTQQRNEISACDNVLTFLLGKREVADYIRLDENWALFINNKRCTDPQFGHLLKTLEYNLDISPELMDYIDRFVVPKSKILDPLEYAGWTRLFISHQEVKSFLATLHTCLSSNKDAVSTKLFTCPVVCEVFTEPFEEYKRAVGLTHMTPIEWVTKNLFRLSNYSQFADQDMAVVGTYITDASTQITFATKFVKNSYATLTGKTKKCICGFHGSYQRFKSILDGELFIESHSHDNPAYVYSFLSTLLYNAMYSFYAHGVKQGHEEFLRDLRELPVSQELISEMSSEDVLGQEGDTDAFYLTASLPPSPTHAALPTLVAYYSGAKELFCNRLALARRHFGDEFLHSDFSTFTVNIVVRDGVDFVSTSPGLHGLVAYASTIDTYIIQGYTFLPVRFGRPGGQRLSEDLRRKMPSIVVQDSSGFIACLENNVTKMTETLEGGDVFNICCAGDYGISSNLAMTIVKAQGVSLSRVAISFGNHRNIRASLVYVGVSRAIDARYLVMDSNPLKLMDRGDAQSPSSKYIIKALCNPKTTLIY
notes: KSHV ORF44, helicase (HEL); source: 293T, transfected, mammalian two-hybrid fusion
binding [1]: binds | binding [2]: binds

B3: VP16-ORF40/41 (natural protein)
chain: T1 sequence
notes: KSHV ORF40/41, primase-associated factor (PAF); source: 293T, transfected, mammalian two-hybrid fusion
binding [3]: binds
